Data taken from PubChem BioAssay AID912, deposited by NCATS (2007).

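A cell-based FRET test of anthrax lethal toxin entry, tracked through the 460 nm emission signal; the cell line is not named here. Each compound was tested as a concentration series from about 0.0005 to 40 µM. The number is the fitted AC50 of the 460 nm signal alone; lower values mean a more potent effect. A falling signal goes with compounds filed as inhibitors or cytotoxic, a rising one with activators or fluorescent compounds (inferred from the filed classes).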

Values are in µM. Common to all entries: measured here: 460 nm channel. This is a side read-out of the assay, for part of the compounds, not drawn at random. Potencies fitted to partial, single-point or poorly fitting curves are rough. The first word of each remark tells which way the curve ran; it can be opposite to the aim of the assay.

SMILES,AC50 (µM),remark
O=C(CN1C(=O)CSc2ccccc21)NC1CCCC1,1,"rising, full curve, poor fit"
COc1ccc(-n2c(SCCC#N)nnc2-c2cc(Cl)ccc2OC)cc1Cl,12.59,"falling, partial curve"
N#CC1=C2SCN(Cc3ccco3)CN2C(=O)CC1c1ccc(Cl)cc1 (stereo not drawn),10,"rising, partial curve, poor fit"
COc1ccc(C(=O)N2CCC[C@@]3(CCN(CC(C)C)C3)C2)cc1,10,"rising, partial curve"
CCOC(=O)C1CCCN(C(=O)Cn2sc3nc(C)cc(C)c3c2=O)C1 (stereo not drawn),6.31,"falling, single point"
O=C(c1cccc(F)c1)N1CCC2(CCCN(c3ccncc3)C2)CC1,10,"falling, partial curve"
CC1Cc2ccccc2N1C(=O)Cn1nc(C(=O)O)c2ccccc2c1=O (stereo not drawn),25.12,"falling, partial curve, poor fit"
Cn1c(=O)c(-c2cccs2)nc2cnc(Oc3ccccc3)nc21,12.59,"rising, partial curve"
Oc1ccccc1-c1cc(C(F)(F)C(F)F)[nH]n1,5.012,"falling, partial curve"
COc1ccc(C2c3c(-c4cc(Cl)c(C)cc4O)n[nH]c3C(=O)N2Cc2cccnc2)cc1OC (stereo not drawn),5.012,"rising, partial curve"
COc1ccc(OCC(O)Cn2c(=N)n(Cc3ccccc3)c3ccccc32)cc1 (stereo not drawn),0.01,"falling, full curve, poor fit"
COc1cccc(CNC(=O)c2ccc3nc[nH]c3c2)c1,0.1259,"rising, full curve, poor fit"
Cn1c(=O)[nH]c(=O)c2c1nc1n2CCCN1CCc1ccccc1,5.012,"rising, single point"
Cc1cc(Nc2c(C)cccc2C)n2nc(C)nc2n1,5.012,"rising, single point"
O=C(C1CCN(S(=O)(=O)N2CCOCC2)CC1)N1CCc2ccccc21,31.62,"rising, single point"
COc1cc(C(=O)N2CCN(c3cc(Cl)ccc3Cl)CC2)cc(OC)c1OC,3.981,"falling, partial curve"
CN(C)c1ncc2nc(-c3ccc(Cl)cc3)c(=O)n(C3CC3)c2n1,5.012,"rising, partial curve"
CCN(CC)CCCNC(=O)c1cc(-c2ccc(Cl)cc2)on1,12.59,"falling, single point"
CN(C)Cc1nsc(N(C)C)n1,1,"falling, single point"
O=C(Nc1nc2n(n1)C(c1ccc(Cl)cc1)CC(c1ccc(Cl)cc1)N2)c1ccco1 (stereo not drawn),31.62,"falling, single point"
O=C1c2ccccc2C(O)(O)[C@@]1(O)[C@]1(O)C(=O)c2ccccc2C1(O)O,1,"rising, single point"
Oc1ccc2ccccc2c1/C=C\c1ccc2c(Br)cc(Br)c(O)c2n1,3.981,"rising, partial curve"
CC(=O)NCCn1c(SCC(=O)NCCC2=CCCCC2)nc2ccccc2c1=O,0.2512,"rising, full curve, poor fit"
CCOC(=O)Cc1csc(NC(=O)COc2ccc(N(C)S(=O)(=O)c3cccs3)cc2)n1,10,"falling, single point"
Cn1c(SCC(=O)N2CCCc3ccccc32)nnc1-c1c[nH]c2ccccc12,5.012,"rising, partial curve"
O=c1c2ccccc2nc(SCc2nnc(-c3ccccc3)o2)n1-c1ccc(F)cc1F,31.62,"falling, single point"
CCCC1(CCC)C(=O)NC(=NCc2ccccc2)NC1=O,25.12,"falling, single point"
COc1ccc(OC)c(Nc2nc(-c3ccc(O)c(O)c3)cs2)c1,12.59,"falling, partial curve, poor fit"
COc1ccc(CNC(=O)c2cc(-c3cccc(OC)c3)on2)cc1,7.943,"falling, partial curve"
Cc1noc(/C=C/c2ccco2)c1S(=O)(=O)N1CCC(C(=O)N2CCc3ccccc3C2)CC1,19.95,"falling, single point"
COC(=O)[C@@]1(Cc2ccccc2)[C@@H]2C(=CC(=O)[C@H]2CC(=O)C(=O)N(C)C)CN1C(=O)c1ccccc1,0.01995,"falling, full curve, poor fit"
O=C(COC(=O)CCS(=O)(=O)c1ccc(Cl)cc1)Nc1ncc(Cl)cc1Cl,5.012,"falling, single point"
CCN(CC)CCCNC(=O)c1cc2c(=O)n(C)c3ccccc3c2n1C,12.59,"falling, partial curve"
N#Cc1ccc(CN2CCCC3(CCNCC3)C2)cc1,3.162,"falling, full curve, poor fit"
COc1cc2oc(-c3ccccc3)cc(=O)c2cc1O,5.012,"falling, partial curve"
COc1ccc(-c2nc3cnc(OC)nc3n(CCc3ccccc3)c2=O)cc1,12.59,"rising, partial curve"
CCCCCCCC/C=C\CCCCCCCC(=O)NCc1ccc(O)c(OC)c1,15.85,"falling, partial curve"
CN1C(=O)c2cccc(NCCCN3C(=O)c4ccccc4C3=O)c2C1=O,25.12,"rising, single point"
CCn1nc(C)c(NC(=O)CCCSc2nc(-c3ccco3)cc(C(F)(F)F)n2)c1C,0.01585,"falling, full curve"
COc1ccc(NC(=O)N2CCC3(CC2)CCN(C(=O)Oc2ccccc2)CC3)cc1,5.012,"rising, single point"
Cc1cc(/C=N/n2cnnc2)c(C)n1-c1ccc(OCc2ccccc2F)cc1,31.62,"falling, single point"
COc1ccc(NC(=O)CN2CCC(C(N)=O)CC2)cc1,0.003162,"falling, full curve, poor fit"
O=C(Nc1cccc(F)c1)N1CC2(CCN(S(=O)(=O)c3ccccc3)CC2)C1,12.59,"rising, partial curve"
CCC(=O)N1CCN(c2ccccc2NC(=O)COc2cccc(C)c2)CC1,2.512,"rising, single point"
COCCN1C=C(C(=O)OC)C(c2ccc3c(c2)OCO3)C(C(=O)OC)=C1,10,"rising, single point"
COC(=O)c1[nH]c2ccc(F)cc2c1NC(=O)C1=COCCO1,0.2512,"falling, full curve"
CN1C(=O)NC(c2ccccc2)C2=C1CN(c1cccc(C(F)(F)F)c1)C2=O (stereo not drawn),3.162,"rising, single point"
Oc1cc(O)c2c(c1)O[C@@H](c1ccc(O)c(O)c1)[C@H](O[C@@]1(c3cc(O)c(O)c(O)c3)Oc3cc(O)cc(O)c3[C@H](O)[C@@H]1O)C2,3.981,"falling, partial curve"
Fc1ccc(Nc2ncnc3ccc(-c4ccoc4)cc23)cc1,6.31,"falling, partial curve"
Cn1c(=O)cc(SCC(=O)NCCCN2CCN(c3ccccc3F)CC2)c2ccccc21,5.012,"rising, single point"
COc1ccc(Nc2nc(-c3sc(N)nc3C)cs2)cc1,19.95,"falling, single point"
CCOc1ccc(N(CC(=O)N2CCc3ccccc32)S(=O)(=O)c2c(C)noc2C)cc1,7.943,"falling, partial curve"
Cc1cc2c3nonc3ccc2n1-c1ccccc1,12.59,"rising, single point"
CCCN1CC=C2C(C#N)=C(N)C(C#N)(C#N)C(c3cc(OC)ccc3OC)C2C1 (stereo not drawn),15.85,"rising, single point"
COc1cccc(C(=O)Cn2c(N3CCCCC3)nc3c2c(=O)n(C)c(=O)n3C)c1,0.01995,"rising, full curve, poor fit"

3 of the entries, repeated:

SMILES	AC50 (µM)	remark
Cc1cc(Nc2c(C)cccc2C)n2nc(C)nc2n1	5.012	rising, single point
COCCN1C=C(C(=O)OC)C(c2ccc3c(c2)OCO3)C(C(=O)OC)=C1	10	rising, single point
CCC(=O)N1CCN(c2ccccc2NC(=O)COc2cccc(C)c2)CC1	2.512	rising, single point